# From the supplement of paper PMC10849652
# The chains behind the UniProt entries cited, without tags or fusion partners. Where a name states a change or a piece, a line headed by the entry shows the natural chain unless it says otherwise.
# UniProt O60841: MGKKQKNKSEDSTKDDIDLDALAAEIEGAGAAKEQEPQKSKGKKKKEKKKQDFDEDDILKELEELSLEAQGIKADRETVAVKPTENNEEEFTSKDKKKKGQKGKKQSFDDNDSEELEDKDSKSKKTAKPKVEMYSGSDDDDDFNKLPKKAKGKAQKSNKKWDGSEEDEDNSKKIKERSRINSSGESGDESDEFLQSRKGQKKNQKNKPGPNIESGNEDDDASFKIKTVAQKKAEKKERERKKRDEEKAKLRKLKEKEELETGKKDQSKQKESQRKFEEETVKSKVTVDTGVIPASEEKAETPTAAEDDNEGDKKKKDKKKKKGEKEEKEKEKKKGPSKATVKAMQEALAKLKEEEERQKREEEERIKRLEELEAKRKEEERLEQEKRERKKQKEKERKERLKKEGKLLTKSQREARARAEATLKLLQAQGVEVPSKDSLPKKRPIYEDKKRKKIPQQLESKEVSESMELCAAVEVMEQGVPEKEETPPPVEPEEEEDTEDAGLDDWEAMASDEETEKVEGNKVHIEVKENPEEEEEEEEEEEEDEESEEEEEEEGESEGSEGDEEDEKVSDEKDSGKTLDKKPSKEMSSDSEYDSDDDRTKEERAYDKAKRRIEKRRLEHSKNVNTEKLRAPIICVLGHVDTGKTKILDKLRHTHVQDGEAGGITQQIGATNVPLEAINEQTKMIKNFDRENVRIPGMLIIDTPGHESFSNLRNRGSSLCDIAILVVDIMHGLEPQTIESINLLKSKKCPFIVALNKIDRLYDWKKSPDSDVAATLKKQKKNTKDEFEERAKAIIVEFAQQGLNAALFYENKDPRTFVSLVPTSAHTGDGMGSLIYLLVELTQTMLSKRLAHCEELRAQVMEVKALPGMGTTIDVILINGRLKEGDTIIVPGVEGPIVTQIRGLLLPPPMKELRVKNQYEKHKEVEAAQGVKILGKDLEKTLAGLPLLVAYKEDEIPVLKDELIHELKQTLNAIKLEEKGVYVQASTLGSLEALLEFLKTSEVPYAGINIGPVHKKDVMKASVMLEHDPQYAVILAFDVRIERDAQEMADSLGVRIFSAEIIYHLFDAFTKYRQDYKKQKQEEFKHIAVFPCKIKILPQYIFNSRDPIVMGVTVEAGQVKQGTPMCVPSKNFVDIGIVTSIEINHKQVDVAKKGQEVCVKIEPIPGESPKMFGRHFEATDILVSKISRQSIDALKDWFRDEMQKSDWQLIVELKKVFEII
# UniProt Q9UI10, whole entry, looked up: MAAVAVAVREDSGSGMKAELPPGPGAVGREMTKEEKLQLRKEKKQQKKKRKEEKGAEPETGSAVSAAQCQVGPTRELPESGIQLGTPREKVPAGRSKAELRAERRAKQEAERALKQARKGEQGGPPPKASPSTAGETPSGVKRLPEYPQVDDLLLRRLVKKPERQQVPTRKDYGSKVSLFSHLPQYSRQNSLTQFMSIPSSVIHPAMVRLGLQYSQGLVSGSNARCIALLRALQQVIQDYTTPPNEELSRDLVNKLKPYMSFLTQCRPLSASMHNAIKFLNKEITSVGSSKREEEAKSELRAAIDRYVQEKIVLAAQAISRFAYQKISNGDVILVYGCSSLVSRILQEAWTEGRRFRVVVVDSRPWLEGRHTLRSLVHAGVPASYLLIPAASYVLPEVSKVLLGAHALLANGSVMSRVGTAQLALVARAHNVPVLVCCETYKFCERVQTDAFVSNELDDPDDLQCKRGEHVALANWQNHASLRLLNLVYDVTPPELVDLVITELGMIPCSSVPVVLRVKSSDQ
# UniProt O43768: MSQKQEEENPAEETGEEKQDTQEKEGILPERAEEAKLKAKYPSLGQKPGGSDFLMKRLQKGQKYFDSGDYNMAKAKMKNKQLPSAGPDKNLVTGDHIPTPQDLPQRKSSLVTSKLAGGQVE
# UniProt Q04637, whole entry, looked up: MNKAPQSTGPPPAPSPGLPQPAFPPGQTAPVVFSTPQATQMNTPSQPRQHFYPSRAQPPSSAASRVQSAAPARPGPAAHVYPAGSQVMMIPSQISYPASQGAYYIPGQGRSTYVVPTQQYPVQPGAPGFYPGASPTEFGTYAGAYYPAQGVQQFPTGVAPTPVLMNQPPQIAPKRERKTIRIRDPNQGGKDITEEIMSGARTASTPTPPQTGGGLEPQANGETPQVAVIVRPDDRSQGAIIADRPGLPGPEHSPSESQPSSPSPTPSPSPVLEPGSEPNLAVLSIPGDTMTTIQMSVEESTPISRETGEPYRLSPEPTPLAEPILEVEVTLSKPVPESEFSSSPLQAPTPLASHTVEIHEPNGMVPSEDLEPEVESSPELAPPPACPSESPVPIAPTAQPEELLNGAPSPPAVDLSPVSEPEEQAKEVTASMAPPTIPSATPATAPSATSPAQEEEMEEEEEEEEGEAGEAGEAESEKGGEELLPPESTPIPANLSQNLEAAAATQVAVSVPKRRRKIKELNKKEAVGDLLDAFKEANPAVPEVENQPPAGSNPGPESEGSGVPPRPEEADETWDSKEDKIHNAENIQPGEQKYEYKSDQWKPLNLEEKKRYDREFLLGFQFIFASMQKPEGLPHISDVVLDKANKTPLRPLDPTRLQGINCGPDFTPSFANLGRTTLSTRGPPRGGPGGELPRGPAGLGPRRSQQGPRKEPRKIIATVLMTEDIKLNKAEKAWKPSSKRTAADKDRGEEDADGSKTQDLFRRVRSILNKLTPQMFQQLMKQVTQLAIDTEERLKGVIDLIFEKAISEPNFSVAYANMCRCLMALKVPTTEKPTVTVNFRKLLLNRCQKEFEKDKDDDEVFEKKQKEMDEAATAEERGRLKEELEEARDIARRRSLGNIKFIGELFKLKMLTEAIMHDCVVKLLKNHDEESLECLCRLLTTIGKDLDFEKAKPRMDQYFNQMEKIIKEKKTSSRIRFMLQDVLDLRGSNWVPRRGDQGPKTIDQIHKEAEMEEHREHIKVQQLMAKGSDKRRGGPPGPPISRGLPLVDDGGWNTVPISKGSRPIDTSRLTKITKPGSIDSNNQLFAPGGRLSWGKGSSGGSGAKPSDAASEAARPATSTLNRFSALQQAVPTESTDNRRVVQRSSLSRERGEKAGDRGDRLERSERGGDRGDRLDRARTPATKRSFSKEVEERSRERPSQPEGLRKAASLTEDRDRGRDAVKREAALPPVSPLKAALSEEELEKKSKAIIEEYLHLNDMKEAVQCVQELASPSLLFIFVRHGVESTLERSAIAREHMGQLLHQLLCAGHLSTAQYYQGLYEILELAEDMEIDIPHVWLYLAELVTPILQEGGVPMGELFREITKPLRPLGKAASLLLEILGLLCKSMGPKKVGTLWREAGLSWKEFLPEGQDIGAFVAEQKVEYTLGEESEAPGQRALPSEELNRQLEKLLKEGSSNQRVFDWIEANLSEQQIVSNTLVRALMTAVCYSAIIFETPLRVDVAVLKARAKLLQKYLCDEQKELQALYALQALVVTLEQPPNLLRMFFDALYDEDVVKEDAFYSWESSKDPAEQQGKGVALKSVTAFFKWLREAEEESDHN
# UniProt Q9BQI3, whole entry, looked up: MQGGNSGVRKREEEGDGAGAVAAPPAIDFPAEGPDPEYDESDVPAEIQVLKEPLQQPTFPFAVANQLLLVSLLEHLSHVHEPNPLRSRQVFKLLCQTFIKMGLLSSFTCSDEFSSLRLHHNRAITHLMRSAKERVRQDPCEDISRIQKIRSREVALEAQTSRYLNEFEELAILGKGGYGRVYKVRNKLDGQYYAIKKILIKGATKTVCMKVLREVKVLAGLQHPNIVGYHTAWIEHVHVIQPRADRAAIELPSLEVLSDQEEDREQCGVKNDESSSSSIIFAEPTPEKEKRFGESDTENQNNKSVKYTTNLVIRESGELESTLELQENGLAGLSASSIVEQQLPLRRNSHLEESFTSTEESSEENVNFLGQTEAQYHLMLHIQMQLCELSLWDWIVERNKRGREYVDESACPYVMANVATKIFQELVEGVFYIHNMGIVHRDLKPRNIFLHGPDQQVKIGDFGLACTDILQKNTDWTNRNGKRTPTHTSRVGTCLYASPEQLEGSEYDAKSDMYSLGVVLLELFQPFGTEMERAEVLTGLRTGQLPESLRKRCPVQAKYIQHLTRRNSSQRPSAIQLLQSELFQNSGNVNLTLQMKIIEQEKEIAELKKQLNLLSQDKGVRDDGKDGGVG
# UniProt Q9GZV4: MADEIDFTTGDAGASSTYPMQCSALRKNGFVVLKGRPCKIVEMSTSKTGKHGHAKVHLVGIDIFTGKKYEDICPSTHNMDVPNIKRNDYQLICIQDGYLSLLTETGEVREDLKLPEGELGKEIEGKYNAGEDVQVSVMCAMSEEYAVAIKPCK
# UniProt Q5NDL2: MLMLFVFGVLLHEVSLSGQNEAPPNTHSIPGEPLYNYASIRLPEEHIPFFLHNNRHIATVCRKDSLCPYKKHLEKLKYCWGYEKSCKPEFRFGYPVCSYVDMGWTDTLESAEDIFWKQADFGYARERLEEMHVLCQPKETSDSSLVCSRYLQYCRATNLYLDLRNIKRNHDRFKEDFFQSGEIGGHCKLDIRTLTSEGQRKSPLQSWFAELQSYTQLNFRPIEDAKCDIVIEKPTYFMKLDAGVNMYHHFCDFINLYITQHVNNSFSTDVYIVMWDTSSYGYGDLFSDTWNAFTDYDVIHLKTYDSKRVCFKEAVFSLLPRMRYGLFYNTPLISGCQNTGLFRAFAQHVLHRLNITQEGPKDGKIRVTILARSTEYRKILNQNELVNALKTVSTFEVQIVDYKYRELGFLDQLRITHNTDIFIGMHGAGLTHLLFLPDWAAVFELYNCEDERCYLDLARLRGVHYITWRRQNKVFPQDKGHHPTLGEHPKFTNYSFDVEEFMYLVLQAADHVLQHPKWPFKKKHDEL
# UniProt P60228, whole entry, looked up: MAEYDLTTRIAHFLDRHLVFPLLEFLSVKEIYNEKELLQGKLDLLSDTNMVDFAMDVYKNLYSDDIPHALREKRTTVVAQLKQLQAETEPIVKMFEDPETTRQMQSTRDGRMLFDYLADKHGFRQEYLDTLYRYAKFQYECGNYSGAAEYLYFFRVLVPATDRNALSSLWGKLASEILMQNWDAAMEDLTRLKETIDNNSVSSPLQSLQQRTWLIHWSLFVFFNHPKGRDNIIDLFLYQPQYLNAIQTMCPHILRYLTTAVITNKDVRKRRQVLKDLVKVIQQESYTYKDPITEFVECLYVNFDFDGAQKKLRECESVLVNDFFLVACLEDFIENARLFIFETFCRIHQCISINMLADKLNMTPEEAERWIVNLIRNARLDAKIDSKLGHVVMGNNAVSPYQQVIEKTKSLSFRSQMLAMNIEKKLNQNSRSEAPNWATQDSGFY
# UniProt O00303, whole entry, looked up: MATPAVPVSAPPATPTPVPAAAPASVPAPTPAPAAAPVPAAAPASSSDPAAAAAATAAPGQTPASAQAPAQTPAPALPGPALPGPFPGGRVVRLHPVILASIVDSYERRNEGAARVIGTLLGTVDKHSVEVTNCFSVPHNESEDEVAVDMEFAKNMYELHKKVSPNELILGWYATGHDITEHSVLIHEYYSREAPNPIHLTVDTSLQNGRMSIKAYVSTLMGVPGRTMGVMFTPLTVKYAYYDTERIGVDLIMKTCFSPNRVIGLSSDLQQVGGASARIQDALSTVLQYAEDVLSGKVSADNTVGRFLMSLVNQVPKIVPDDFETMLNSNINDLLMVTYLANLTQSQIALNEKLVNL
# UniProt Q8IV48: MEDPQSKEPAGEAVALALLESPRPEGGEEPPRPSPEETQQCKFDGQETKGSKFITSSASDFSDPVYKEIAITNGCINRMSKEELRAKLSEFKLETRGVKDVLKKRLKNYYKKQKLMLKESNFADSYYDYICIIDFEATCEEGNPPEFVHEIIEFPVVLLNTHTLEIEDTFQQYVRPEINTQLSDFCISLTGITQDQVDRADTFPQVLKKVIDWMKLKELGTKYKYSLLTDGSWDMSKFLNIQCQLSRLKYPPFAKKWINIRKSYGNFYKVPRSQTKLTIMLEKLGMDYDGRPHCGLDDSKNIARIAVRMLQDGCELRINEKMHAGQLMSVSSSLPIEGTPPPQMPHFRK
# UniProt P41214: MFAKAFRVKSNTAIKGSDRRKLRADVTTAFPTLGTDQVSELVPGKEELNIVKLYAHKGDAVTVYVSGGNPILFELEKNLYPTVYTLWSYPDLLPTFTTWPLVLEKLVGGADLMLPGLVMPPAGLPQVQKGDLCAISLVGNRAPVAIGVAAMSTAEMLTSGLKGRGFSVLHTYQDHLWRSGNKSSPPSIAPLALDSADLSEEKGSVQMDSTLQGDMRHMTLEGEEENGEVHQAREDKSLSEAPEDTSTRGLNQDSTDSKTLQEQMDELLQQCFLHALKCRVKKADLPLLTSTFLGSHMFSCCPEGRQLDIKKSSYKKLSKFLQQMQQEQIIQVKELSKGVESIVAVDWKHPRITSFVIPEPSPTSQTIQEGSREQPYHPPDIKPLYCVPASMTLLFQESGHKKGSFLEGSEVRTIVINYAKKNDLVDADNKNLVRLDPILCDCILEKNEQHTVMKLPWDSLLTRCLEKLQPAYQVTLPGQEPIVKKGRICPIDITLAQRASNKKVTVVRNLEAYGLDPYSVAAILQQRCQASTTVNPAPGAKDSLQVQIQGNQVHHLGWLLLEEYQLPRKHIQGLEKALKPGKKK
# The list shows a part of the results.
# Key:
# Test in all cases: log2 fold change, soluble protein after heating vs DMSO (PISA); higher = thermal stabilisation; K562 lysate, 10 uM; active = over 0.2 and 3.5 SD of the protein, either way, in both replicates (recomputed)
# erlotinib = compound: C#Cc1cccc(Nc2ncnc3cc(OCCOC)c(OCCOC)cc23)c1 [erlotinib]
# Outline: (§1)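 Soluble protein was defined as the supernatant remaining after 21,000xg for 90 min, following pooling of heated aliquots and adjustment to 0.5% NP-40 at 4°C. Before that, crude K562 extract at 1 mg/mL protein in PBS pH 7.4 with 1 mM MgCl2 was treated with 10 μM compound for 30 min and heated for 3 min across 48°C-58°C. Quantification used TMTpro 16plex LC-MS/MS with channel sums equalised, and values are log-two fold changes in thermal stability relative to solvent controls from duplicates.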
# [1] = compound: C/C(=N\NC(=O)C1=CC(=CC=C1)S(=O)(=O)N2CCOCC2)/C3=C(C=CC(=C3)Cl)O
# Outline: as §1
# [2] = compound: C1=CC(=CC=C1C2=NC3=C(N2)C=C(C=C3)C(=O)N)OC4=CC=C(C=C4)Cl
# Outline: as §1
# [3] = compound: C1=CC2=C(C=CC(=C2)/C=C\3/C(=O)NC(=NCC4=CC=CS4)S3)N=C1
# Outline: as §1
# [4] = compound: C1=CC2=NC=CN=C2C=C1/C=C/3\C(=O)NC(=O)S3
# Outline: as §1
# [5] = compound: C1=CC=C(C=C1)C2=NC(=C(N2)C3=CC=NC=C3)C4=CC(=C(C=C4)Cl)O
# Outline: as §1
# [6] = compound: C1=CC=C2C(=C1)C3=NNC4=CC=CC(=C43)C2=O
# Outline: as §1
# [7] = compound: C1CCN(C1)C(=O)NC2=CC=CC(=C2)NC3=NC=C(C(=N3)NCCC4=CN=CN4)Br
# Outline: as §1
# [8] = compound: C1CN(CCC1(CC2=CC=C(C=C2)Cl)N)C3=NC=NC4=C3C=CN4
# Outline: as §1
# IRAK-1-4 Inhibitor I = compound: C1COCCN1CCN2C3=CC=CC=C3N=C2NC(=O)C4=CC(=CC=C4)[N+](=O)[O-] [IRAK-1-4 Inhibitor I]
# Outline: as §1
# ibrutinib = compound: C=CC(=O)N1CCC[C@@H](n2nc(-c3ccc(Oc4ccccc4)cc3)c3c(N)ncnc32)C1 [ibrutinib]
# Outline: as §1
# [9] = compound: CC(=O)c1cnc2ccc(-c3cc(Cl)c(O)c(Cl)c3)nc2c1N[C@H]1CC[C@H](CN(C)C)CC1
# Outline: as §1
# ralimetinib = compound: CC(C)(C)Cn1c(N)nc2ccc(-c3[nH]c(C(C)(C)C)nc3-c3ccc(F)cc3)nc21 [ralimetinib]
# Outline: as §1
# [10] = compound: CC(C)(O)CC(=O)NCCn1ccc2ncnc(Nc3ccc(Oc4cccc(C(F)(F)F)c4)c(Cl)c3)c21
# Outline: as §1
# [11] = compound: CC(C)C1=C2N=C(C=C(N2N=C1)NCC3=CC=CC=C3)NCCCCCCN
# Outline: as §1
# [12] = compound: CC1=C(C(CC(=O)N1)C2=CC=C(C=C2)C(F)(F)F)C(=O)NC3=C(C=C4C(=C3)C=NN4)F
# Outline: as §1
# [13] = compound: CC1=C(C2=C(C=C1)C(=O)C3=CC=CC=C3N2CCCN)C
# Outline: as §1
# [14] = compound: CC1=C(C=C(C=C1)NC(=O)C2=CC(=CC=C2)C(C)(C)C#N)NC3=CC4=C(C=C3)N=CN(C4=O)C
# Outline: as §1
# [15] = compound: CC1=C(C=C(C=C1)NC(=O)C2=CC(=CC=C2)N(C)C)NC(=O)C3=CC=C(C=C3)O
# Outline: as §1
# [16] = compound: CC1=CC=C(C=C1)SC2=C3C=C(SC3=CN=C2)C(=O)N
# Outline: as §1
Target,log2 fold change (erlotinib),log2 fold change [1],log2 fold change [2],log2 fold change [3],log2 fold change [4],log2 fold change [5],log2 fold change [6],log2 fold change [7],log2 fold change [8],log2 fold change (IRAK-1-4 Inhibitor I),log2 fold change (ibrutinib),log2 fold change [9],log2 fold change (ralimetinib),log2 fold change [10],log2 fold change [11],log2 fold change [12],log2 fold change [13],log2 fold change [14],log2 fold change [15],log2 fold change [16]
EIF5B (UniProt O60841),inactive: 0.001,inactive: 0.013,inactive: 0.006,inactive: 0.009,inactive: -0.05,inactive: 0.016,inactive: -0.017,inactive: -0.012,inactive: -0.004,inactive: -0.002,inactive: -0.039,inactive: -0.016,inactive: -0.011,inactive: -0.03,inactive: 0.017,inactive: -0.026,inactive: -0.044,inactive: 0.002,inactive: 0.01,inactive: -0.001
EIF2B4 (UniProt Q9UI10),inactive: 0.066,inactive: -0.063,inactive: -0.027,inactive: -0.178,inactive: -0.02,inactive: -0.121,inactive: 0.105,inactive: -0.009,inactive: 0.07,inactive: 0.118,inactive: -0.01,inactive: 0.05,inactive: -0.033,inactive: -0.062,inactive: 0.013,inactive: 0.009,inactive: -0.109,inactive: -0.044,inactive: 0.005,inactive: -0.038
EML3 (UniProt Q32P44),inactive: -0.027,inactive: 0.008,inactive: 0.009,inactive: -0.011,inactive: -0.01,inactive: -0.03,inactive: 0.008,inactive: -0.012,inactive: -0.025,inactive: -0.014,inactive: 0.014,inactive: -0.029,inactive: 0.011,inactive: -0.006,inactive: -0.018,inactive: 0.006,inactive: -0.017,inactive: 0.016,inactive: 0.002,inactive: -0.02
ENSA isoform 3 (UniProt O43768),inactive: -0.034,inactive: 0.032,inactive: 0,inactive: -0.013,inactive: -0.047,active: -0.459,inactive: 0.013,inactive: 0.006,inactive: 0.006,inactive: -0.004,inactive: 0.042,inactive: 0.015,inactive: -0.019,inactive: 0.02,inactive: -0.013,inactive: -0.016,inactive: 0.039,inactive: -0.042,inactive: -0.057,inactive: -0.01
ELP1 (UniProt O95163),inactive: 0.005,inactive: 0.024,inactive: 0.014,inactive: -0.01,inactive: -0.001,inactive: -0.017,inactive: -0.009,inactive: -0.001,inactive: 0.027,inactive: 0.008,inactive: -0.01,inactive: -0.017,inactive: 0.004,inactive: -0.04,inactive: -0.007,inactive: 0.004,inactive: -0.016,inactive: 0.043,inactive: 0.011,inactive: 0.007
EIF4G1 (UniProt Q04637),inactive: 0.005,inactive: -0.002,inactive: 0.003,inactive: -0.002,inactive: 0.005,inactive: 0.003,inactive: -0.007,inactive: -0.002,inactive: -0.003,inactive: 0,inactive: 0.001,inactive: 0.017,inactive: -0.001,inactive: -0.016,inactive: -0.009,inactive: -0.005,inactive: 0.027,inactive: -0.004,inactive: 0.009,inactive: -0.004
EIF2AK1 (UniProt Q9BQI3),inactive: -0.016,inactive: 0.087,inactive: 0.017,inactive: -0.02,inactive: 0.029,inactive: -0.027,inactive: -0.016,inactive: -0.02,inactive: -0.006,inactive: -0.01,inactive: 0.007,inactive: -0.151,inactive: 0.028,inactive: 0.034,inactive: -0.017,inactive: -0.001,inactive: -0.007,inactive: 0.044,inactive: 0.018,inactive: -0.072
EIF5A2 (UniProt Q9GZV4),inactive: 0.046,inactive: -0.006,inactive: 0.067,inactive: 0.01,inactive: -0.02,inactive: 0.042,inactive: -0.019,inactive: 0.02,inactive: 0.016,inactive: 0.038,inactive: 0.037,inactive: 0.032,inactive: 0.029,inactive: -0.037,inactive: 0.005,inactive: -0.079,inactive: 0.033,inactive: 0.011,inactive: -0.048,inactive: 0.012
EOGT (UniProt Q5NDL2),inactive: -0.028,inactive: -0.057,inactive: -0.023,inactive: -0.086,inactive: -0.022,inactive: -0.025,inactive: -0.045,inactive: -0.005,inactive: 0.043,inactive: 0.045,inactive: 0.018,inactive: -0.005,inactive: 0.113,inactive: -0.041,inactive: -0.036,inactive: -0.033,inactive: -0.091,inactive: -0.049,inactive: -0.003,inactive: -0.015
EIF3E (UniProt P60228),inactive: -0.018,inactive: 0.122,inactive: -0.065,inactive: 0.009,inactive: 0.039,inactive: -0.019,inactive: -0.057,inactive: 0,inactive: 0.022,inactive: -0.031,inactive: 0.039,inactive: 0.022,inactive: 0.034,inactive: 0.021,inactive: -0.022,inactive: -0.005,inactive: 0.019,inactive: -0.028,inactive: 0.03,inactive: 0.028
EIF3C (UniProt Q99613),inactive: -0.02,inactive: 0.022,inactive: -0.047,inactive: -0.001,inactive: 0.028,inactive: -0.023,inactive: -0.037,inactive: 0,inactive: -0.002,inactive: -0.017,inactive: -0.013,inactive: 0.003,inactive: 0.028,inactive: 0.008,inactive: 0.003,inactive: -0.019,inactive: 0.006,inactive: -0.022,inactive: 0.039,inactive: 0.012
EPPK1 (UniProt P58107),inactive: 0.022,inactive: 0.012,inactive: -0.012,inactive: -0.003,inactive: 0,inactive: -0.01,inactive: -0.002,inactive: -0.012,inactive: 0.008,inactive: -0.06,inactive: -0.007,inactive: -0.049,inactive: 0.038,inactive: 0.013,inactive: 0.022,inactive: -0.012,inactive: 0.012,inactive: -0.026,inactive: 0.061,inactive: -0.043
EIF3F (UniProt O00303),inactive: 0.032,inactive: -0.023,inactive: -0.011,inactive: 0.018,inactive: -0.017,inactive: 0.008,inactive: -0.02,inactive: -0.021,inactive: -0.005,inactive: -0.009,inactive: -0.028,inactive: -0.016,inactive: 0.009,inactive: 0.007,inactive: 0.012,inactive: -0.044,inactive: -0.007,inactive: -0.055,inactive: 0.014,inactive: 0.002
ERI1 (UniProt Q8IV48),inactive: -0.015,inactive: 0.073,inactive: -0.009,inactive: 0.019,inactive: -0.028,inactive: 0.134,inactive: -0.03,inactive: -0.009,inactive: -0.036,inactive: -0.111,inactive: -0.037,inactive: 0.022,inactive: -0.035,inactive: 0.085,inactive: 0.084,inactive: -0.05,inactive: 0,inactive: -0.033,inactive: 0.411,inactive: 0.012
EIF2D (UniProt P41214),inactive: 0.048,inactive: 0.019,inactive: -0.017,inactive: 0.054,inactive: 0.001,inactive: 0.008,inactive: -0.016,inactive: 0.025,inactive: 0.021,inactive: -0.023,inactive: 0.011,inactive: -0.017,inactive: 0.018,inactive: 0.026,inactive: 0.03,inactive: -0.005,inactive: -0.03,inactive: -0.004,inactive: 0.016,inactive: 0.01
EIF3G (UniProt K7ER90),inactive: 0.001,inactive: -0.097,inactive: 0.009,inactive: -0.1,inactive: -0.101,inactive: -0.055,inactive: -0.085,inactive: -0.206,inactive: 0.046,inactive: -0.043,inactive: -0.146,inactive: 0.013,inactive: -0.062,inactive: -0.008,inactive: 0.057,inactive: -0.142,inactive: 0.134,inactive: 0.118,inactive: 0.013,inactive: 0.037
